# According to PMC12647892, “State-selective small molecule degraders that preferentially remove aggregates and oligomers” (Nature Communications, 2025):
# Protein sequences, listed by entry. Tags and fused reporters are not part of them. Residues count along the entry.
# UniProt P19474, residues 287-465: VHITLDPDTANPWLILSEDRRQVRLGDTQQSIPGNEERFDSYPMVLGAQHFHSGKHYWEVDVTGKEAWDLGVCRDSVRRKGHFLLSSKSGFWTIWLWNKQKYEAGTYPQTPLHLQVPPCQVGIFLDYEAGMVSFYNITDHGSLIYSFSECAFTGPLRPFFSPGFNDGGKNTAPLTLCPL
# Results are given in words; binding and its absence hold for the method and conditions named.
# Target: TRIM21 PRYSPRY domain, His-tagged (TRIM21his-PS) (human) (UniProt P19474)
# Assay: AUC; sedimentation velocity, 50,000 rpm, 20 °C, A230; 5 µM of each protein alone; both purified
substance,measurement,value
"TRIM21 PRYSPRY domain, His-tagged (TRIM21his-PS) (from UniProt P19474 287-465) (domain or fragment)",binding,no binding (tested: 5 µM)
